Data taken from patent US20230159620A1, “COMPOSITIONS AND METHODS OF TREATMENT FOR VASCULAR DISEASES AND THROMBOSIS” (Washington University, priority 2021, published 2023).
No constants are given. Whether binding was seen depends on the method and setting. Binding seen in cells or lysates may run through a third protein. Some binding calls cover weakened binding; strength is not graded here. For part of these data: Tags and fused reporters may be left off the sequences shown.

Protein sequences, listed by entry. Tags and fused reporters are not part of them. Residues count along the entry.
UniProt P11276, residues 33-2477: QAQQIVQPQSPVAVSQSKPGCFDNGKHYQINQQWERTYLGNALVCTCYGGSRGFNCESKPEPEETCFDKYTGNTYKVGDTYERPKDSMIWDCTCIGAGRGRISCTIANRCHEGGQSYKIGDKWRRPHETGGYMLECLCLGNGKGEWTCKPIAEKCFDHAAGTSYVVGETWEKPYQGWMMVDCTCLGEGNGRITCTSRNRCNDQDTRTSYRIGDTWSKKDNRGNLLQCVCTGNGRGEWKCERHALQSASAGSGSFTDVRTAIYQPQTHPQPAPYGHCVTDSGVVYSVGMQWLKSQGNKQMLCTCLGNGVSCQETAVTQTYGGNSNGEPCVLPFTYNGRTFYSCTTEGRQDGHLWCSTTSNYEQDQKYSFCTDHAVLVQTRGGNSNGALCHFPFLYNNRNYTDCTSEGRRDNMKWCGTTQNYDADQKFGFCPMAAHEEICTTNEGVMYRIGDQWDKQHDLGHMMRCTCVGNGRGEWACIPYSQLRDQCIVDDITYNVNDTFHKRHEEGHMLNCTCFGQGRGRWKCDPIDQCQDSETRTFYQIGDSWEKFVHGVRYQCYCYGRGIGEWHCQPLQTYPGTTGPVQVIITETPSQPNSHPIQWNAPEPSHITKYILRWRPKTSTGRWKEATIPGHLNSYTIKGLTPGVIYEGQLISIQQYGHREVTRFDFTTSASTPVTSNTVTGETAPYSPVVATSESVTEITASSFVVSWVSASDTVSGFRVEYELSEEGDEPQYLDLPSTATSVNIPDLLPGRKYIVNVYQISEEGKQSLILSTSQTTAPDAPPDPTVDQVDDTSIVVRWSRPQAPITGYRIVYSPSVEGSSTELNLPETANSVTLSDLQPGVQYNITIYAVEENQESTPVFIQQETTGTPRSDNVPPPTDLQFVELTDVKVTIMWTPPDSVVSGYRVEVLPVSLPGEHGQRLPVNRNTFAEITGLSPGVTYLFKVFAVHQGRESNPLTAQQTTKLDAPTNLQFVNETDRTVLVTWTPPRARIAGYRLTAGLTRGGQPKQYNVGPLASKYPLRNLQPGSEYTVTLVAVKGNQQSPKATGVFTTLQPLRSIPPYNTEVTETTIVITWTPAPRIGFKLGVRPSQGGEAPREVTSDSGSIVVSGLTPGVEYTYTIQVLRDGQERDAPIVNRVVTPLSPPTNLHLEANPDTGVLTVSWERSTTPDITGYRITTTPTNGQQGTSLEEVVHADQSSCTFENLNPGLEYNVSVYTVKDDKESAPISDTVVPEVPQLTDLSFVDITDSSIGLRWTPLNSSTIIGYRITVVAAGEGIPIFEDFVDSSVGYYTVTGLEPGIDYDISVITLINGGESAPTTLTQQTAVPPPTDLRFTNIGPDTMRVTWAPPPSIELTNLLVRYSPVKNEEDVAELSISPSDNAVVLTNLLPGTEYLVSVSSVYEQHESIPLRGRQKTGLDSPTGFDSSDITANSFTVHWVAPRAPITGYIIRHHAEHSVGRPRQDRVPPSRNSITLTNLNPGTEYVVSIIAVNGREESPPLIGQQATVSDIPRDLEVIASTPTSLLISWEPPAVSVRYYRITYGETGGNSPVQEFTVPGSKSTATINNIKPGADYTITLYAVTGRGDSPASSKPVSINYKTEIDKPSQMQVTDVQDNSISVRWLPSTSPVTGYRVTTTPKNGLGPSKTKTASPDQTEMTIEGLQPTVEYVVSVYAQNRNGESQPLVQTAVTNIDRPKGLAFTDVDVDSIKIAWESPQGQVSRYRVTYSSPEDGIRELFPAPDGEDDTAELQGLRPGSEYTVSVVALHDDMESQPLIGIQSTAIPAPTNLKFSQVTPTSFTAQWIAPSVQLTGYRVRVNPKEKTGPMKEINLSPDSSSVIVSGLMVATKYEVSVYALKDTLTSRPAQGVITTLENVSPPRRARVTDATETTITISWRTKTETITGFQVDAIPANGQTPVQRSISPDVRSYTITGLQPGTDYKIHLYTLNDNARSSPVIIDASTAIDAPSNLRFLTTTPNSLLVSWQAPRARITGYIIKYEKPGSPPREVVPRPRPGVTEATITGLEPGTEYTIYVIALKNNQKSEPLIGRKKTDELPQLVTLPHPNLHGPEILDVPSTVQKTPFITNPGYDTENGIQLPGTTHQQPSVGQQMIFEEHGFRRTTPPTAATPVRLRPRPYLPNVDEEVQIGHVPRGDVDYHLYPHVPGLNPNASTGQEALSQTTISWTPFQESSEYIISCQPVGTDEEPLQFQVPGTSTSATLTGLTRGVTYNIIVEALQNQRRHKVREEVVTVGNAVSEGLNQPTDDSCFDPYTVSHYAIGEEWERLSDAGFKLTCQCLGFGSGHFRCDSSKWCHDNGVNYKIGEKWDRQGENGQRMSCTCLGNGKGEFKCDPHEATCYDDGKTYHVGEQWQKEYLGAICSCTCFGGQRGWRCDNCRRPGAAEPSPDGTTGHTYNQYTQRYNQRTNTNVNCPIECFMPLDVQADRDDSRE
UniProt A2AVA0, residues 18-3567: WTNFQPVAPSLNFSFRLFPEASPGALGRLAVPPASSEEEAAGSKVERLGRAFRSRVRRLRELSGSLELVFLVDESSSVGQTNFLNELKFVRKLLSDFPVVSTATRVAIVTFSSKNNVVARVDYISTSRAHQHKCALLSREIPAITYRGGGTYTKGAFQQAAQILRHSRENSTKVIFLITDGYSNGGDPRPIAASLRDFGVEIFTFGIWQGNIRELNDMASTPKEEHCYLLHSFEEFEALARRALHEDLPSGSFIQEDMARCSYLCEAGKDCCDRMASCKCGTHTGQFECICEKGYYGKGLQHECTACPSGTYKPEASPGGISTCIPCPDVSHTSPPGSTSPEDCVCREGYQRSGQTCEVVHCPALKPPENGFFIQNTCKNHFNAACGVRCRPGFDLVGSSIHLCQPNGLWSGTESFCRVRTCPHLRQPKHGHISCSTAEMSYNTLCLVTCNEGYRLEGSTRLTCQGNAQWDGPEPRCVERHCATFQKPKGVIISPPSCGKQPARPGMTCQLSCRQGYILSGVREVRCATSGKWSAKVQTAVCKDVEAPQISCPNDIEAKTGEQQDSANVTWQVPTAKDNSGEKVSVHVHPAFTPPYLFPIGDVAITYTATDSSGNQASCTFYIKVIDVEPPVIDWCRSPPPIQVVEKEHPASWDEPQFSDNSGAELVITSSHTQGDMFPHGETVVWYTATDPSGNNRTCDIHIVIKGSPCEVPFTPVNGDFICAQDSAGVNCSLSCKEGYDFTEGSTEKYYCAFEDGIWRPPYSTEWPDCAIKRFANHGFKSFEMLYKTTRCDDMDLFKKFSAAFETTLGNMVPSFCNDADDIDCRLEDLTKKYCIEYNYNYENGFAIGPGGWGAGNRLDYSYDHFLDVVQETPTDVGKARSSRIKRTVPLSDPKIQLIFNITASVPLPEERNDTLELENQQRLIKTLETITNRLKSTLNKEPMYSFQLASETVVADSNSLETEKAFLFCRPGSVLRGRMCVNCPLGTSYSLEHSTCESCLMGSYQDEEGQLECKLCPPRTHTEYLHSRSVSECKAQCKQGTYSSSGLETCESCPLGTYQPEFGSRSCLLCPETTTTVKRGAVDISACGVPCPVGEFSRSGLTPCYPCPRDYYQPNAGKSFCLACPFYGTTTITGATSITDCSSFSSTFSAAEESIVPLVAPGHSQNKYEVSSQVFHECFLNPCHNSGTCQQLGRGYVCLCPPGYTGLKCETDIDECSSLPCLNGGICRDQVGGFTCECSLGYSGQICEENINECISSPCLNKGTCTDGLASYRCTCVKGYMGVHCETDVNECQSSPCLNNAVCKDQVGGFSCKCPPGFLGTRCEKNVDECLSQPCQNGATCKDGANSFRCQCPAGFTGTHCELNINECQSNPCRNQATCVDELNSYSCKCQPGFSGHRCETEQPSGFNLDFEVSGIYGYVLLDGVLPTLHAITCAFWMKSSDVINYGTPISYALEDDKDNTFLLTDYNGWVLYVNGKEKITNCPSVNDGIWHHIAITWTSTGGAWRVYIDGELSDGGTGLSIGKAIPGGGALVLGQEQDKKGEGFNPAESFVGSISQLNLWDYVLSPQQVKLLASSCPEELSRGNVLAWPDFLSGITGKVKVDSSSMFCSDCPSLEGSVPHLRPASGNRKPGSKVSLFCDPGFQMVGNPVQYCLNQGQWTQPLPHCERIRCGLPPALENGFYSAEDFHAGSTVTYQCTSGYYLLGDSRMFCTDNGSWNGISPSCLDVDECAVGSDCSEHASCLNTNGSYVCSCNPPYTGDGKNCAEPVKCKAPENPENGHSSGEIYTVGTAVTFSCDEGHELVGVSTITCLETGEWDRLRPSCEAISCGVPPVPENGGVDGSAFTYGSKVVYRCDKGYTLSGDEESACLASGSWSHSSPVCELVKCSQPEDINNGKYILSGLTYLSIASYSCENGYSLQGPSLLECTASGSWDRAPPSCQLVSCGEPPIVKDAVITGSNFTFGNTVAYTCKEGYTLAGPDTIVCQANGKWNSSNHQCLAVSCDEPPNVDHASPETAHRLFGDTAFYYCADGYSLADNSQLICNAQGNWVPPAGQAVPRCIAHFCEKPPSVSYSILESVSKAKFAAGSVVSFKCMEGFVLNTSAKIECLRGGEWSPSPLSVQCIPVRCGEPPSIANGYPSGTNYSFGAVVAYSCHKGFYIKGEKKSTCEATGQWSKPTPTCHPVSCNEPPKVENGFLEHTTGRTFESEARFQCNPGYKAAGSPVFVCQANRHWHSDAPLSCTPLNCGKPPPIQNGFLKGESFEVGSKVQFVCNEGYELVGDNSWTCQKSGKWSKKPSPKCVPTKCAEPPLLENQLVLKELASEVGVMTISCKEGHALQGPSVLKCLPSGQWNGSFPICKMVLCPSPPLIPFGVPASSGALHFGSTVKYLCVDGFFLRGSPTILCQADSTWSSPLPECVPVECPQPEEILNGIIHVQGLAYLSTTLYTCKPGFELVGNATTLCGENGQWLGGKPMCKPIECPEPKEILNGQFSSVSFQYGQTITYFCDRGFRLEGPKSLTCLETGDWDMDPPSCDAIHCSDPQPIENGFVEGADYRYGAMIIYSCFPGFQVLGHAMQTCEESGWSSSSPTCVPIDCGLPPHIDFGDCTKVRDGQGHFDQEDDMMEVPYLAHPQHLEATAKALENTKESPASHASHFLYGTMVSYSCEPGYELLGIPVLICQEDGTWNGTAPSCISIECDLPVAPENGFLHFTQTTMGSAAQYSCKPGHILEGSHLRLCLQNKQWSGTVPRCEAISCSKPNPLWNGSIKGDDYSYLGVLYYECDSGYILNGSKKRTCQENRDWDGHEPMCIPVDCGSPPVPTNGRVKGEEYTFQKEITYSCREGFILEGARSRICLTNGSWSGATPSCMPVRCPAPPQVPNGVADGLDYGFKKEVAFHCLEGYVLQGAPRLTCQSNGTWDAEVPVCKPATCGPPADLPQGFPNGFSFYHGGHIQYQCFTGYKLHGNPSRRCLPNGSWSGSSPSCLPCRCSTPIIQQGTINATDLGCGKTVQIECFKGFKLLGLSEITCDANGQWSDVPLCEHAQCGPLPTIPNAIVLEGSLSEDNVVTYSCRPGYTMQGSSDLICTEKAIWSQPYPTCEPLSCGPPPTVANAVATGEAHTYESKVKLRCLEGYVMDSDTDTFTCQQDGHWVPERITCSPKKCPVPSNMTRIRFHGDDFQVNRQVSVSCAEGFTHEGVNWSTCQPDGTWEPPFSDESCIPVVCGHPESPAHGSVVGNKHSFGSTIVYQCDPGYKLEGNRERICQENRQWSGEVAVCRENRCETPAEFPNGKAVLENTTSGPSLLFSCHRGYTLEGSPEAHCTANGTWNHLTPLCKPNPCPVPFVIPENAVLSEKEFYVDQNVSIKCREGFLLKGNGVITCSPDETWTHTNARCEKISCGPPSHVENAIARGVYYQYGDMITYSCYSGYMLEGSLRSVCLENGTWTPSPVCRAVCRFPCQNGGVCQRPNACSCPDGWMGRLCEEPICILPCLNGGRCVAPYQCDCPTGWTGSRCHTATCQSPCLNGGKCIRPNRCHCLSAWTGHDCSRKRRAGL

Legend:
[1] = target: T1, Pearl 1ECD-Bio-His (biotinylated Pearl 1 ecto-domain, plasmid pTT3-Pearl 1-bio-His) (UniProt Q5VY43); experiment: co-immunoprecipitation of purified proteins, biotinylated Pearl 1 detected with fluorescent streptavidin (FIG. 50A)
T1 sequence (biotinylated by co-transfected secreted BirA (site not printed), looked up): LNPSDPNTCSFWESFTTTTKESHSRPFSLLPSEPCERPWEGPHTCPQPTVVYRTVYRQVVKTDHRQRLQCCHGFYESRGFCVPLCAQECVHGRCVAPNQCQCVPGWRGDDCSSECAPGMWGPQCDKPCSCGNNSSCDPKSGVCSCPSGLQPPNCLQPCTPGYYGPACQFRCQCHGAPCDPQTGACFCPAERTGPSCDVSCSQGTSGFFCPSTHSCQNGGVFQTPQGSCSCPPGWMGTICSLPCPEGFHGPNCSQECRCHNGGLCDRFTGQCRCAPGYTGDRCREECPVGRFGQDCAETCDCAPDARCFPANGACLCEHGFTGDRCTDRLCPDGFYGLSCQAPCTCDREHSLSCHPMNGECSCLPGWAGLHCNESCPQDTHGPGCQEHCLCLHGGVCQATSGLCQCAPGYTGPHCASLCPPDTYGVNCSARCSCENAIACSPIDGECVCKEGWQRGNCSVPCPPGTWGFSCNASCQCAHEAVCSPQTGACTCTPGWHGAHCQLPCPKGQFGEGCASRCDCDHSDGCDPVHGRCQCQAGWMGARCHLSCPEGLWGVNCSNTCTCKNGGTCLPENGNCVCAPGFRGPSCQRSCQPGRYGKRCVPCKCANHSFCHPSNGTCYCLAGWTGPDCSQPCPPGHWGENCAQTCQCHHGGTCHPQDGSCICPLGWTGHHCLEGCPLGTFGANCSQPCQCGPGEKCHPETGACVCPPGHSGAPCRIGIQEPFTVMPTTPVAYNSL

[2] = target: Fibronectin from enriched murine VSMC media (mouse) (UniProt P11276); experiment: co-immunoprecipitation of SVEP1-Myc with anti-Myc beads from enriched murine VSMC media, immunoblot for Fibronectin (FIG. 50C)
[3] = target: Fibronectin from enriched murine VSMC media (mouse) (UniProt P11276); experiment: affinity (SVEP1-Myc pulldown) and proximity (SVEP1-mTID biotin labelling) proteomics in enriched murine VSMC media, enrichment at P<0.10 in every experiment

Measured: binding

recombinant, Myc-tagged SVEP1 (murine Svep1-myc-His10 construct) (from UniProt A2AVA0 18-3567) (ligand)
binds: all assays above
